Source: PubChem BioAssay AID1671190 (National Center for Advancing Translational Sciences (NCATS), 2021)
Screen size: about 580,000 compounds; about 6,100 (1.1%) were called active. Inconclusive means that the source gave no clear call. Such entries were picked first, then a sample of the others. Calls follow the shape of the dose curve; as a rule, active = well fitted inhibition curve with a large enough effect; inconclusive = small, poorly fitted or top-dose-only effect, or another doubt; inactive = no such curve, though single readings can be large or run the other way. Potencies of inconclusive entries are doubtful fits and often do not repeat.

Chains of the proteins cited; added tags and fusions are not shown. Lines headed by an entry give the natural chain unless they say otherwise; changes in a name come on top.
UniProt P18054: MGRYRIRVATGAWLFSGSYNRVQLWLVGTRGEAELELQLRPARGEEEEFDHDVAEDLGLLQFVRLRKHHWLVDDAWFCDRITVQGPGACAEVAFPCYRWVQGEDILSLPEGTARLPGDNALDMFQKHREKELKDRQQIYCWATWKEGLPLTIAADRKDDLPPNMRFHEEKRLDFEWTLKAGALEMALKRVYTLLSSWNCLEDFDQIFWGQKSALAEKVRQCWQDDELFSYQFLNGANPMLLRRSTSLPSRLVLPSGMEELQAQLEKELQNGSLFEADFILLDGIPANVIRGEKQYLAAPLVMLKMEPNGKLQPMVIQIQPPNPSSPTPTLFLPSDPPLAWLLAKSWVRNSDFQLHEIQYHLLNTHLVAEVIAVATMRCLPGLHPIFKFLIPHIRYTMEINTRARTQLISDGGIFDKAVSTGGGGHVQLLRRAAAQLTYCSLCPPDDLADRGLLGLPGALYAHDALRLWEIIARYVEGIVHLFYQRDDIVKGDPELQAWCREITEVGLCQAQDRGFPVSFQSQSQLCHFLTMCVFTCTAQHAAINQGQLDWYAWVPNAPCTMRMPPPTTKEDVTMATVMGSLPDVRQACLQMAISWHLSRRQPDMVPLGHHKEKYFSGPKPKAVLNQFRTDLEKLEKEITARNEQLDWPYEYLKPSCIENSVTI

What follows are compounds tested against Polyunsaturated fatty acid lipoxygenase ALOX12 (Homo sapiens) (UniProt P18054) (assay: Primary qHTS assay for inhibitors of human arachidonate 12S-lipoxygenase (ALOX12): Round 2). Conditions: purified 12hLO, xylenol orange hydroperoxide absorbance; activity change, negative = inhibition: at 108 µM (top of the series) unless noted.
Summary of the method: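 Purified human 12hLO at 150 nM in 25 mM Hepes, 0.01% Triton X-100, pH 7.0, preincubated 15 min at room temperature with compound. Reaction started with 40 uM arachidonic acid, 30 min at room temperature. Hydroperoxide measured by Fe-xylenol orange, 573/405 nm absorbance ratio.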
% is scaled to controls: 0 for no effect and ±100 for the full control effect; potency is read from the fitted curve at half-maximal effect.

Compound	Potency	activity change, negative = inhibition
COc1ccc(NC(=O)CN2CCN(c3ccccc3F)CC2)cc1	inactive	–
CCOC(=O)C1CCCN(C(=O)C2CCN(S(=O)(=O)c3ccc4ccccc4c3)CC2)C1 (stereo not drawn)	inconclusive: 112 µM [inhibitor, single point]	–
Cc1ccc2c(CN3CCN(c4ccccc4)CC3)cc(=O)oc2c1	inconclusive: 100 µM [inhibitor, single point]	–
CCCCC[C@@H](C)N1C[C@@H](COCc2ccccc2)Oc2cc(N3CCC[C@H]3CO)ccc2S1(=O)=O	inconclusive: 89.1 µM [inhibitor, single point]	–
COC(=O)c1ccc(Nc2nc(N3CCOCC3)nc(N3CCOCC3)n2)cc1	inconclusive: 44.7 µM [inhibitor, partial curve, poor fit]	–
COc1ccc(NC(=S)NC(=O)c2ccc(Br)o2)cc1	inactive	–
COCc1cc(C)nc(N/N=C/c2ccc(-c3cc(C(=O)O)ccc3Cl)o2)c1C#N	inconclusive: 31.6 µM [inhibitor, partial curve]	–
CCOc1ccc(C(=O)N(Cc2ccc(C(C)C)cc2)Cc2ccco2)cc1	inconclusive: 56.2 µM [inhibitor, partial curve, poor fit]	–
NC(=O)c1ccc(Sc2ccc(Cl)cc2)nc1	inconclusive: 0.251 µM [inhibitor, full curve, poor fit]	–
O=C(Nc1nc(-c2ccccn2)cs1)c1ccco1	inconclusive: 44.7 µM [inhibitor, partial curve, poor fit]	–
Cc1ccc(C(=O)N2CC3(Cc4ccccc4C(=O)N3)C2)cc1	–	inactive: 8.37% [at 6.33 µM]
COC(=O)c1cn[nH]c1NC(=S)Nc1ccc(Cl)c(Cl)c1	inactive	–
COCCCNC(=O)C1CCN(C(=O)N2CC3CC(C2)[C@H]2CCCC(=O)N2C3)CC1 (stereo partly drawn)	inactive	–
CN(C)/C=N/c1c(C#N)cnn1C	inconclusive: 112 µM [inhibitor, single point]	–
O=C(CCN1c2ccccc2Sc2ccccc21)OCC(=O)N1CCN(C(=O)c2ccco2)CC1	inconclusive: 17.8 µM [inhibitor, full curve, poor fit]	–
CN(C)Cc1ccccc1-c1cncnc1Nc1ccc(F)cc1	inconclusive: 126 µM [inhibitor, partial curve, poor fit]	–
Cc1ncc2c(n1)CCCN(CC(=O)NCC1CC1)C2=O	inactive	–
Cc1cc2c(cc1NS(=O)(=O)c1ccc(Br)cc1)n(C)c(=O)c(=O)n2C	inactive	–
CC(C)NC(NC(=O)/C=C/c1ccccc1)C(Cl)(Cl)Cl (stereo not drawn)	inactive	–
CCOc1ccc(C(=O)Nc2nonc2CC)cc1	inconclusive: 31.6 µM [inhibitor, partial curve]	–
CCCCc1c(-c2ccccc2OC)ncn1Cc1ccc(Cl)cc1Cl	active: 31.6 µM	–
COc1ccc(-c2cc(C(=O)Nc3cc(C)on3)c3ccccc3n2)c(OC)c1	inconclusive: 112 µM [inhibitor, single point]	–
COC(=O)c1c(C)[nH]c(C(=O)N2CCCCCC2c2ccc(OC)cc2)c1C (stereo not drawn)	inconclusive: 79.4 µM [inhibitor, single point]	–

Compound	Potency	activity change, negative = inhibition
COc1cccc(Cn2nc(SC)c(S(=O)(=O)c3ccccc3)c2N(C(C)=O)C(C)=O)c1	inactive	–
O=C(NC(CSCc1ccccc1)C(=O)N/N=C/c1ccc(O)cc1O)c1ccc([N+](=O)[O-])cc1 (stereo not drawn)	inconclusive: 14.1 µM [inhibitor, full curve, poor fit]	–
CCOc1ccccc1CN1CCNC(=O)C1CC(=O)N(C)Cc1nonc1C (stereo not drawn)	inconclusive: 3.55 µM [inhibitor, full curve, poor fit]	–
Cc1cc(CN2CCCC(C(=O)Nc3ccc(-c4nc5ccccc5[nH]4)cc3)C2)n[nH]1 (stereo not drawn)	inconclusive: 2.51 µM [inhibitor, partial curve, poor fit]	–
Cc1cccc(C(=O)NNC(=S)NC(=O)c2ccc(C(C)(C)C)cc2)c1	active: 17.8 µM	–
O=C1CC(c2ccc(F)cc2)SC(N(c2ccccc2)c2ccccc2)=N1 (stereo not drawn)	inconclusive: 112 µM [inhibitor, partial curve, poor fit]	–
COc1ccc(-c2coc3c(C(=O)NCc4ccco4)cccc23)c(C)c1	inconclusive: 50.1 µM [inhibitor, single point]	–
CCN(Cc1ccncc1)C(=O)c1ccc(C2CCNC2)cc1 (stereo not drawn)	inconclusive: 7.94 µM [inhibitor, full curve]	–
COc1ccc(-c2nc(C)nc3c2CCN(C(=O)c2ccccn2)CC3)cc1	inactive	–
CC(=O)O[C@H]1C[C@@H](n2cnc3c(Cl)ncnc32)[C@@H]2OC(C)(C)O[C@@H]21	inconclusive: 28.2 µM [inhibitor, single point]	–
O=C(NNC1CC(=O)N(c2ccccc2)C1=O)c1ccccc1Cl (stereo not drawn)	inconclusive: 112 µM [inhibitor, single point]	–
COc1ccc(NC(=O)CN2C(=O)COc3ccc(S(=O)(=O)N4CCCCC4)cc32)c(OC)c1	inactive	–
Cc1cc(C)c(S(=O)(=O)N2CCC(C(=O)NCCc3csc(-c4ccccc4)n3)CC2)c(C)c1	inconclusive: 35.5 µM [inhibitor, partial curve, poor fit]	–
COc1ccccc1N=C1SCC(=O)N1c1ccccc1OC	inconclusive: 56.2 µM [inhibitor, partial curve, poor fit]	–
CCOC(=O)C1=C2NC(=O)c3ccccc3N2C(=O)C1	inactive	–
Cc1cc(C)cc(C(=O)N2CCN(c3cc(-c4ccc(Cl)cc4)[nH]n3)CC2)c1	inactive	–
Cc1cccc(-n2c(Cn3nc(C)c([N+](=O)[O-])c3C)n[nH]c2=S)c1	inconclusive: 89.1 µM [inhibitor, partial curve, poor fit]	–
Cc1cc(C)c2oc(C(=O)N(Cc3cccc(Cl)c3)C3CCS(=O)(=O)C3)cc(=O)c2c1 (stereo not drawn)	inconclusive: 17.8 µM [inhibitor, single point]	–
Cc1c(NC(=O)CSC(=S)N2CCCC2)c(=O)n(-c2ccccc2)n1C	inconclusive: 50.1 µM [inhibitor, partial curve, poor fit]	–
COc1ccccc1-c1nc(S(=O)(=O)c2ccc3c(c2)OCCO3)c(NC(C)C)o1	inconclusive: 35.5 µM [inhibitor, partial curve, poor fit]	–
CCN(C(=O)c1ccc2c(Cl)c3c(nc2c1)CCC3)c1ccc(C)c(C)c1	inconclusive: 112 µM [inhibitor, single point]	–
O=C(COc1ccc2c(c1)C(=O)CC1(CCCCC1)O2)NCc1ccccn1	inactive	–
O=[S+]([O-])(Nc1nncs1)c1ccc2c(c1)OCCN(Cc1cccs1)C2	inconclusive: 56.2 µM [inhibitor, partial curve]	–

Record cards, as listed above. Values in the order: Potency | activity change, negative = inhibition
COc1ccccc1N=C1SCC(=O)N1c1ccccc1OC is listed as inconclusive: 56.2 µM [inhibitor, partial curve, poor fit] | –
Cc1cccc(C(=O)NNC(=S)NC(=O)c2ccc(C(C)(C)C)cc2)c1 is listed as active: 17.8 µM | –
COc1ccc(-c2coc3c(C(=O)NCc4ccco4)cccc23)c(C)c1 is listed as inconclusive: 50.1 µM [inhibitor, single point] | –
CCN(Cc1ccncc1)C(=O)c1ccc(C2CCNC2)cc1 (stereo not drawn) is listed as inconclusive: 7.94 µM [inhibitor, full curve] | –

Following part:

Compound	Potency	activity change, negative = inhibition
COc1ccc2c3c(n(C)c2c1)[C@@H](CO)N(Cc1cc(F)ccc1F)CC31CN(C(C)=O)C1	inconclusive: 100 µM [inhibitor, single point]	–
CCN(CC)c1ccc(C=Nc2c(C)cc(C)cc2C)cc1	inconclusive: 22.4 µM [inhibitor, single point]	–
CCOC(=O)C1=C(C)N(C)C(=S)NC1c1ccccc1Cl (stereo not drawn)	inconclusive: 50.1 µM [inhibitor, partial curve, poor fit]	–
CN(Cc1ccccc1)Cc1ccccc1C(F)(F)F	inactive	–
Cc1ccc(C)c(NC(=O)Cc2ccc(S(=O)(=O)N3CCCCC3)s2)c1	inactive	–
COc1ccc(-c2noc(CCC(=O)N(C)c3cc(Cl)ccc3OC)n2)cc1	inactive	–
O=C(O)c1cc(=O)c2cc(Cl)ccc2o1	inconclusive: 141 µM [inhibitor, single point]	–
CC(C)OCCNc1nccc(C2(c3ccccc3Cl)CCNCC2)n1	inconclusive: 15.8 µM [inhibitor, full curve, poor fit]	–
Cc1cccc(C(=O)Nc2sc(C(=O)N3CCCC3)c(C)c2C#N)c1	inactive	–
Cc1ccc2ccccc2c1C(O)c1ncc(-c2ccc(Cl)cc2)[nH]1 (stereo not drawn)	inconclusive: 50.1 µM [inhibitor, partial curve, poor fit]	–
CCN1c2ccccc2NC2=C(C(=O)CC(C)(C)C2)C1c1ccccc1 (stereo not drawn)	inactive	–
COc1ccc2oc(=O)c(C(=O)NC3CCCCCC3)cc2c1	inconclusive: 100 µM [inhibitor, single point]	–
COCCn1c(-c2ccccc2)nc2ccccc21	inactive	–
CC(C)n1c(-c2ccc(C(C)(C)C)cc2)n[nH]c1=S	active: 15.8 µM	–
O=C(O)c1ccc(Cl)cc1F	inconclusive: 31.6 µM [inhibitor, partial curve]	–
CCc1nnsc1C(=O)NCC(C)(C)c1ccc(Br)cc1	inconclusive: 126 µM [inhibitor, single point]	–
CCOc1ccc(CCNC(=O)c2nn(C)c3c2CS(=O)(=O)c2ccccc2-3)cc1OCC	inactive	–
CS(=O)(=O)CCCN	inconclusive: 11.2 µM [inhibitor, partial curve, poor fit]	–
CCc1nn(C(CC)C(=O)NCc2ccc(OC)c(OC)c2)c(=O)c2cc3oc(C)cc3n12 (stereo not drawn)	inconclusive: 112 µM [inhibitor, partial curve, poor fit]	–
COc1ccccc1N1CCN(c2ncnc3c2c(-c2ccccc2)cn3-c2cccc(Cl)c2)CC1	inconclusive: 5.62 µM [inhibitor, partial curve, poor fit]	–
c1ccc(Nc2cccc(Nc3nc(CN4CCOCC4)nc4sc5c(c34)CCC5)c2)cc1	inconclusive: 100 µM [inhibitor, single point]	–
COc1ccc(CNC[C@H]2Cn3c(-c4ccc(Cl)cc4)cnc3CO2)cn1	inconclusive: 79.4 µM [inhibitor, partial curve]	–
